# Results published in PubChem BioAssay AID1347076 (National Center for Advancing Translational Sciences (NCATS), 2019).
# About 13,000 (3.2%) of roughly 400,000 compounds were called active. The shares of active, inactive and inconclusive entries below differ from those in the screen. Calls follow the shape of the dose curve; as a rule, active = well fitted cell-killing curve with a large enough effect; inconclusive = small, poorly fitted or top-dose-only effect, or effect the other way; inactive = flat fitted curve, though single readings scatter. Potencies beside an inconclusive call are fits to weak or partial responses and may not hold up. Where a SMILES comes first, the peptide text is derived from it. [ ]: non-standard residue; d: D form. Inp = O=C(O)C1CCNCC1
# Assay: qHTS assay for MDR1-selective chemotherapeutics: Primary screen using the drug-selected MDR subline cells KB-V1; also: nearly all actives have a fitted effect of over 60% in size
# Settings: KB-V1 MDR cells viability, CellTiter-Glo, 72 h; series mostly up to 46.1 µM
# Method in brief: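 Compound-treated KB-V1 multidrug-resistant cells, 72 h, 37 degrees C; viability by CellTiter-Glo. Fitted qHTS curves give the values.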
# Potency is read from the fitted curve at half-maximal effect.
row,SMILES,Potency
1,CC(OC(=O)c1cccc([N+](=O)[O-])c1)C(=O)N1CCc2ccccc21 (stereo unspecified),"inconclusive: 10.3 µM [cytotoxic, partial curve]"
2,COC(=O)c1cc2occc2n1Cc1cccc(C)c1,"inconclusive: 29.1 µM [rising, single point]"
3,CC1CCCCC1NC(=O)Cn1ncc2ccccc21 (stereo unspecified),"inconclusive: 20.6 µM [rising, partial curve]"
4,CC(C)(C)OC(=O)N1CCN(c2ccc(NC(=O)c3ccco3)cc2)CC1,"inconclusive: 7.31 µM [cytotoxic, partial curve]"
5,CCCCCCCCCCn1ccc(=N)cc1,"inconclusive: 29.1 µM [cytotoxic, single point]"
6,O=C(c1cccc(S(=O)(=O)N2CCCC2)c1)N1CCN(c2ccccc2)CC1,"inconclusive: 23.1 µM [cytotoxic, partial curve, poor fit]"
7,C/C(=N\Nc1nc(C)cc(-c2ccccc2)n1)c1ccc(C)o1,"inconclusive: 16.4 µM [cytotoxic, single point]"
8,CC1CCC(NC(=O)CSc2nncs2)CC1 (stereo unspecified),"inconclusive: 2.91 µM [rising, partial curve, poor fit]"
9,N[C@@H](Cc1ccccc1)C(=O)N1CCC(C(=O)NCC(=O)NCC(=O)O)CC1 (H-F[Inp]GG-OH),"inconclusive: 0.461 µM [cytotoxic, full curve, poor fit]"
10,Cc1cccc(OCCOC(=O)c2c(-c3ccccc3)noc2C)c1,"inconclusive: 29.1 µM [cytotoxic, single point]"
11,CCOC(=O)Nc1ccc(S(=O)(=O)NCc2ccccc2)cc1,"inconclusive: 25.9 µM [cytotoxic, partial curve, poor fit]"
12,O=C(NC(=S)N1CCCCC1c1cccnc1)c1ccc(F)cc1 (stereo unspecified),inactive
13,CCCN(CC(=O)Nc1ccccc1C)C(=O)c1ccc(-c2ccc([N+](=O)[O-])cc2)o1,"inconclusive: 23.1 µM [cytotoxic, single point]"
14,C[C@@H]1CN([C@@H](C)CO)C(=O)c2cccc(NC(=O)c3ccncc3)c2O[C@@H]1CN(C)Cc1ccc(-c2ccccc2)cc1,"inconclusive: 3.66 µM [cytotoxic, partial curve, poor fit]"
15,CCOc1ccc(OCCC(=O)OCC(=O)NCCc2ccc(S(N)(=O)=O)cc2)cc1,"inconclusive: 29.1 µM [rising, single point]"
16,O=C(CSc1ncn[nH]1)Nc1ccccc1Sc1ccccc1,active: 14.6 µM
17,CCOC(=O)c1c(NC(=O)/C=C/C(=O)O)sc(C)c1-c1ccc(Cl)cc1,inactive
18,NS(=O)(=O)c1ccc(CCNC(=O)C2CC(=O)N(Cc3ccccc3Cl)C2)cc1 (stereo unspecified),inactive
19,O=C(Nc1ccc(F)c(Cl)c1)c1ccc2c(=O)n3c(nc2c1)CCCCC3,"inconclusive: 14.6 µM [cytotoxic, single point]"
20,CCOC(=O)N1CCC(NC(=O)CN2C(=O)C(CC)Oc3ccc(C)cc32)CC1 (stereo unspecified),"inconclusive: 14.6 µM [cytotoxic, partial curve]"
21,CCCc1nc2c(c(=O)c3ccccc3n2C)c(=O)n1-c1ccc(F)cc1,"inconclusive: 16.4 µM [cytotoxic, partial curve]"
22,COc1ccc(OCC(=O)N2CCN(C(=O)c3ccc(F)cc3)CC2)cc1,inactive
23,COc1ccc(N2C(=O)c3ccccc3NC23CCC(C)CC3)cc1 (stereo unspecified),"inconclusive: 11.6 µM [cytotoxic, partial curve]"
24,COc1ccc(-n2cc(C(=O)c3ccccc3O)cn2)cc1,"inconclusive: 18.4 µM [cytotoxic, single point]"

row,SMILES,Potency
1,COc1cccc(CNS(=O)(=O)/C=C/c2ccc(OC)c(OC)c2)c1,"inconclusive: 8.2 µM [cytotoxic, partial curve]"
2,CCn1ccc2cc(S(=O)(=O)N3CCCN(C(=O)NCCOC)CC3)ccc21,inactive
3,CCc1ccc2nc(NC(=O)C3CCN(c4ncnc5sc(C)c(C)c45)CC3)sc2c1,inactive
4,CCCCNCCOCCSc1ccc(Cl)cc1,"inconclusive: 29.1 µM [cytotoxic, single point]"
5,COc1ccc(NC(=O)C2COc3ccccc3O2)cc1S(=O)(=O)N1CCOCC1 (stereo unspecified),active: 13 µM
6,CCOC(=O)/C=C1\CC(C(=O)OCC)Oc2ccccc21 (stereo unspecified),inactive
7,CCOc1ccccc1C1C2=C(COC2=O)Nc2cc3c(cc21)OCO3 (stereo unspecified),active: 3.66 µM
8,COc1ccc(C)cc1NS(=O)(=O)c1ccc2[nH]c(=O)c(=O)[nH]c2c1,inactive
9,O=C(c1ccc(F)cc1F)N1CCN(S(=O)(=O)c2ccc3c(c2)OCCO3)CC1,active: 16.4 µM
10,CCNC(=S)N1CCc2cc(OC)c(OC)cc2C1COc1ccccc1OC (stereo unspecified),"inconclusive: 10.3 µM [cytotoxic, partial curve, poor fit]"
11,O=C(CSCc1cccc(Br)c1)N/N=C/c1ccc2c(c1)OCO2,inactive
12,O=C(c1ccccc1)N1CCN(C(=O)c2nn3c(C(F)(F)F)cc(-c4ccccc4)nc3c2Br)CC1,"inconclusive: 18.4 µM [cytotoxic, partial curve, poor fit]"
13,COc1ccc(Cn2c(=O)oc3ccc(C)cc32)cc1OC,"inconclusive: 6.51 µM [cytotoxic, partial curve, poor fit]"
14,Cc1cc(C(=O)Nc2c(C)nn(Cc3ccc(F)cc3)c2C)no1,"inconclusive: 29.1 µM [cytotoxic, single point]"
15,FC(F)(F)c1cccc(CNc2ncccc2-c2nc3cc(Cl)ccc3o2)c1,"inconclusive: 18.4 µM [cytotoxic, single point]"
16,NC(=O)C1CCN(C(=O)Cn2c(-c3cccs3)cc3ccccc32)CC1,inactive
17,CCCCn1nnnc1C1(C)CCC(=O)N1CCOC (stereo unspecified),inactive
18,CCn1c(=S)[nH]c2nc3c(cc2c1=O)CCCC3,inactive
19,Cc1nn(Cc2ccc(C(=O)Nc3nccs3)cc2)c(C)c1Cl,active: 20.6 µM
20,NC(=S)N/N=C/c1ccc(-c2ccc([N+](=O)[O-])cc2)o1,inactive
21,Cc1ccc(NC(=S)Nc2ccc(C(C)C)cc2)cc1S(=O)(=O)N1CCCCCC1,active: 14.6 µM
22,Cc1ccc2[nH]cc(CCNC(=O)c3ccco3)c2c1,inactive
23,O=C(CSc1ccc2c(c1)OCCO2)NCCN1C(=O)CSC1=O,"inconclusive: 3.66 µM [rising, full curve]"
24,COc1ccc(Cl)cc1NC(=O)CN1CCN(S(=O)(=O)N2CCCCC2)CC1,"inconclusive: 2.91 µM [cytotoxic, partial curve, poor fit]"

# Random excerpt: two records from the list, in no set order.
row,SMILES,Potency
13,COc1ccc(Cn2c(=O)oc3ccc(C)cc32)cc1OC,"inconclusive: 6.51 µM [cytotoxic, partial curve, poor fit]"
5,COc1ccc(NC(=O)C2COc3ccccc3O2)cc1S(=O)(=O)N1CCOCC1 (stereo unspecified),active: 13 µM

# 4 compounds out of the list, arranged by molecular weight, high to low:
row,SMILES,Potency
14,C[C@@H]1CN([C@@H](C)CO)C(=O)c2cccc(NC(=O)c3ccncc3)c2O[C@@H]1CN(C)Cc1ccc(-c2ccccc2)cc1,"inconclusive: 3.66 µM [cytotoxic, partial curve, poor fit]"
11,CCOC(=O)Nc1ccc(S(=O)(=O)NCc2ccccc2)cc1,"inconclusive: 25.9 µM [cytotoxic, partial curve, poor fit]"
20,NC(=S)N/N=C/c1ccc(-c2ccc([N+](=O)[O-])cc2)o1,inactive
5,CCCCCCCCCCn1ccc(=N)cc1,"inconclusive: 29.1 µM [cytotoxic, single point]"

# Following part.

row,SMILES,Potency
1,CC(NC(=O)c1ccc(F)cc1)c1nc2ccccc2n1Cc1ccccc1F (stereo unspecified),active: 2.06 µM
2,CCCCN(c1ccccc1)S(=O)(=O)c1ccc2c(c1)CC(C)N2C(=O)C1CC1 (stereo unspecified),"inconclusive: 11.6 µM [cytotoxic, partial curve, poor fit]"
3,CS(=O)(=O)Cc1ccc(C(=O)Nc2cccc(-c3nc4ccccc4[nH]3)c2)cc1,inactive
4,COc1ncccc1-c1cnc2cccnn12,inactive
5,CC1CN(S(=O)(=O)c2ccc3c(c2)NC(=O)CC(=O)N3)c2ccccc2O1 (stereo unspecified),"inconclusive: 29.1 µM [rising, single point]"
6,Cc1ccccc1N1CCN(c2ncnc3c2cnn3Cc2ccc(Cl)cc2)CC1,"inconclusive: 8.2 µM [cytotoxic, partial curve]"
7,Cc1csc(SCC(=O)Nc2ccc(S(=O)(=O)N3CCCC3)cc2)n1,"inconclusive: 25.9 µM [cytotoxic, single point]"
8,O=C(NCC(=O)N1CCN(Cc2ccccc2)CC1)c1ccc(Cl)cc1,inactive
9,COc1ccccc1N1CCN(Cc2cc3c(cc2Br)OCCO3)CC1,"inconclusive: 11.6 µM [cytotoxic, partial curve]"
10,COc1cccc(NC(=O)CN(C)C(=O)c2cc(-c3ccc(C)o3)nc3ccccc23)c1,inactive
11,C=CCNC(=S)N/N=C(\C)c1ccccn1,"inconclusive: 0.0116 µM [cytotoxic, full curve, poor fit]"
12,CCOC(=O)C1=C(C)NC(=S)NC1c1ccco1 (stereo unspecified),inactive
13,COc1ccc(S(=O)(=O)N2CCN(Cc3ccccc3OC)CC2)cc1,"inconclusive: 16.4 µM [cytotoxic, partial curve, poor fit]"
14,CNS(=O)(=O)c1cn(CC(=O)N2CCN(c3cc(C)ccc3C)CC2)cc1S(=O)(=O)NC,inactive
15,C=CCN(c1ccccc1)S(=O)(=O)c1cccc(C(=O)Nc2cccc(C)n2)c1,"inconclusive: 20.6 µM [cytotoxic, partial curve]"
16,Cc1cc(C)cc(NC(=O)CSCc2cc(=O)c3ccc(C)c(C)c3[nH]2)c1,inactive
17,COc1ccc(C(CNC(=O)COc2ccccc2)N2CCCCC2)cc1 (stereo unspecified),"inconclusive: 29.1 µM [cytotoxic, single point]"
18,Cc1cccc(-n2ncc3c(NCc4ccccc4)ncnc32)c1,active: 6.51 µM
19,CCC(C(=O)N1CCN(Cc2ccc3c(c2)OCO3)CC1)n1nnc2ccccc2c1=O (stereo unspecified),"inconclusive: 2.06 µM [cytotoxic, full curve, poor fit]"
20,Cc1cc(N/N=C/c2ccccc2Cl)nc(NCc2ccccc2)n1,"inconclusive: 11.6 µM [cytotoxic, partial curve, poor fit]"
21,O=C(Nc1ccc2oc(-c3ccccc3F)nc2c1)c1ccc2c(c1)OCCO2,active: 18.4 µM
22,CC(NS(=O)(=O)/C=C/c1ccccc1)C(=O)NCCc1ccc(S(N)(=O)=O)cc1 (stereo unspecified),"inconclusive: 20.6 µM [rising, single point]"
23,O=C(COC(=O)c1ccccc1[N+](=O)[O-])Nc1cc(S(=O)(=O)N2CCOCC2)ccc1N1CCCC1,"inconclusive: 0.231 µM [rising, full curve, poor fit]"
